This passage reports NP40-soluble protein abundance results from the supplement of paper PMC6411743.

Protein sequences, listed by entry. Tags and fused reporters are not part of them. Lines headed by an entry give the natural chain unless they say otherwise; changes in a name come on top.
UniProt Q9Y3A2: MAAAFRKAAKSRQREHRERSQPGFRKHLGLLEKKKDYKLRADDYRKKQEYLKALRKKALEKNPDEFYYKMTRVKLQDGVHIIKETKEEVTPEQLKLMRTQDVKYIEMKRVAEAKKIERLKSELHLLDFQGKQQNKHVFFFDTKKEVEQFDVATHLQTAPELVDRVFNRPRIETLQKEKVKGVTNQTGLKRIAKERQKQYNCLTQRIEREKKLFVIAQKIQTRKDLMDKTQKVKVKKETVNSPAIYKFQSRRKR
UniProt Q9Y3L5: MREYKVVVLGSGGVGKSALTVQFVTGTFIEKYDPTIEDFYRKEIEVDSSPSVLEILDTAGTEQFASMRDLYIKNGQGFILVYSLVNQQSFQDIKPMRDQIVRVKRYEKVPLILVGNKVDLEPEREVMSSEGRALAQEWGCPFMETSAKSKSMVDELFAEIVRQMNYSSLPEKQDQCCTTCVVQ
UniProt Q9Y664: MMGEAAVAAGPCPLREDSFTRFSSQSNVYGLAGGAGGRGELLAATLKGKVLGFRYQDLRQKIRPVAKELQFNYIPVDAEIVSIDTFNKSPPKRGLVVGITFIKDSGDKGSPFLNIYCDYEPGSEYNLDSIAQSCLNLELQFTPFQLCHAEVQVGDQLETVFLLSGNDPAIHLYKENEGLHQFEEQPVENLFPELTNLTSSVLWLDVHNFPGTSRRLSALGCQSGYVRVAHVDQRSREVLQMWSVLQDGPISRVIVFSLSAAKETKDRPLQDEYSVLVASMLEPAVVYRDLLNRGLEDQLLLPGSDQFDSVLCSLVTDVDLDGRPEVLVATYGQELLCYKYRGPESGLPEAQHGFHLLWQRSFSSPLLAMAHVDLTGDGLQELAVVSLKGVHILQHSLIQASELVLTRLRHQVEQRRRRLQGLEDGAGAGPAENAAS
UniProt Q9Y5L4: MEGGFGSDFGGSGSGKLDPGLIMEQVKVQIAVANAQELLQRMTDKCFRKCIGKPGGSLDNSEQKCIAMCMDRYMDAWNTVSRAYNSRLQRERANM
UniProt Q9Y5X3: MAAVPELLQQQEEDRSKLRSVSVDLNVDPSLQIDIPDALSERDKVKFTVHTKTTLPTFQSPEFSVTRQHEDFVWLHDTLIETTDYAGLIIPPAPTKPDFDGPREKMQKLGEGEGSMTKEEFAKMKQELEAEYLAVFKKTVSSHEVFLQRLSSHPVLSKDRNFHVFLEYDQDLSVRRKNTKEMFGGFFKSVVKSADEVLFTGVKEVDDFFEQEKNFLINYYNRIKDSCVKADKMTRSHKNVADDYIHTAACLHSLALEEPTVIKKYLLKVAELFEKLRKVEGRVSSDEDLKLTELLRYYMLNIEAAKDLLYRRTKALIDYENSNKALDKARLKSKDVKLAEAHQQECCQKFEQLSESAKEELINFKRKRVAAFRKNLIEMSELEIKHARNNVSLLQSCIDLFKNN
UniProt Q9Y4C8: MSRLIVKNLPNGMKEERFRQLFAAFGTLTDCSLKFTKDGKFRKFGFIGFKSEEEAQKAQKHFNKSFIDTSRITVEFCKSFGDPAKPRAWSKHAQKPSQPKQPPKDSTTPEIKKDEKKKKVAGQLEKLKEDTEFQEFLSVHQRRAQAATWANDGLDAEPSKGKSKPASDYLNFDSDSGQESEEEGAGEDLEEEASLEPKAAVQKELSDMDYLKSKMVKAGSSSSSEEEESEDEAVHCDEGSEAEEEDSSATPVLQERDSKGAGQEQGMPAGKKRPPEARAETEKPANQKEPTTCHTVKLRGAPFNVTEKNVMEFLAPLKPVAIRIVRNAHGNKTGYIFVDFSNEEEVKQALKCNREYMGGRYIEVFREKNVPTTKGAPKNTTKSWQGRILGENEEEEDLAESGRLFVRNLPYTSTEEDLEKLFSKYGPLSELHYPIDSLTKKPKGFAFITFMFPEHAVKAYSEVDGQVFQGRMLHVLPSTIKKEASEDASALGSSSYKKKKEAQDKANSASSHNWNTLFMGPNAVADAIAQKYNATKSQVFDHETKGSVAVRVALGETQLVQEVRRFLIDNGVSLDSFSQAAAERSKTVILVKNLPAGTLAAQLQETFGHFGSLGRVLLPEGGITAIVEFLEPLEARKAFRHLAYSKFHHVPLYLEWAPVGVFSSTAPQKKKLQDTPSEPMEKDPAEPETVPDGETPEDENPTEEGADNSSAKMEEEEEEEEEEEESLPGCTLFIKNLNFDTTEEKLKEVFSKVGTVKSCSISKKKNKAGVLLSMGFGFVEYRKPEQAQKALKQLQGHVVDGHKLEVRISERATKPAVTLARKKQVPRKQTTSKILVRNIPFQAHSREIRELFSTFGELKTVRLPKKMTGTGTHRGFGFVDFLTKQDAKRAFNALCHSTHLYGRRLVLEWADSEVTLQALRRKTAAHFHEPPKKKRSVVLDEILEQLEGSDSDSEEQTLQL
UniProt Q9Y3Y2: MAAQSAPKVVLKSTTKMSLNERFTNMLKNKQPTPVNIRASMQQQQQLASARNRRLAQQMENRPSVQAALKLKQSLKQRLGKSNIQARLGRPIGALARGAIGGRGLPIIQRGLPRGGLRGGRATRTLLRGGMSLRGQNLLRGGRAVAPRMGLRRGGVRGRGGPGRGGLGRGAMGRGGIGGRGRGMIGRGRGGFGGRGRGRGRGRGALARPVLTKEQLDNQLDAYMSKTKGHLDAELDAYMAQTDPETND
UniProt Q9Y2X9: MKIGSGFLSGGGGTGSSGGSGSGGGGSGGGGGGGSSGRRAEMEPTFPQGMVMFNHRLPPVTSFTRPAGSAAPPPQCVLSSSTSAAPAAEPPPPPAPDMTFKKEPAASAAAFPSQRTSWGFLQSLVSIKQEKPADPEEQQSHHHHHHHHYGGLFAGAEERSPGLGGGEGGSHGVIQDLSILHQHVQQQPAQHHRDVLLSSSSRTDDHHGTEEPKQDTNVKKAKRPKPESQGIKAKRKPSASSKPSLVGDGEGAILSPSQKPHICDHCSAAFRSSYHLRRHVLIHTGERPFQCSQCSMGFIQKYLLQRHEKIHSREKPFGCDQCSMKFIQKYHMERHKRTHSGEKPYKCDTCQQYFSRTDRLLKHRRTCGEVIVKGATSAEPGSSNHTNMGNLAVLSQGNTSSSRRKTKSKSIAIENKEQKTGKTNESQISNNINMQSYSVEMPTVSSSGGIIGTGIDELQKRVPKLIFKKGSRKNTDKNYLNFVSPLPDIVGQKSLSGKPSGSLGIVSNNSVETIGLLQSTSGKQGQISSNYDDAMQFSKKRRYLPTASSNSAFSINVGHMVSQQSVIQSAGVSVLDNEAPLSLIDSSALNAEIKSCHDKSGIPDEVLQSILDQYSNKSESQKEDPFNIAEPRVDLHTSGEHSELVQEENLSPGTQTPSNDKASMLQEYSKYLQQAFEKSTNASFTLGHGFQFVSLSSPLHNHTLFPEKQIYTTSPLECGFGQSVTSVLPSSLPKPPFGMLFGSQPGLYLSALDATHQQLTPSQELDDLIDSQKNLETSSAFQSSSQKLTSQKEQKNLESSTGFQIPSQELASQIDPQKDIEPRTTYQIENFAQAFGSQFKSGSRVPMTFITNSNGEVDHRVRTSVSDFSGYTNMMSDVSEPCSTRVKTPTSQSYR
UniProt Q9Y333: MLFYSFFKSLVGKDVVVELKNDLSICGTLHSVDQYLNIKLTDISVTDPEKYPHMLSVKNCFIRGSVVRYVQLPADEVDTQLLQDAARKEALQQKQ
UniProt Q9Y5Y5: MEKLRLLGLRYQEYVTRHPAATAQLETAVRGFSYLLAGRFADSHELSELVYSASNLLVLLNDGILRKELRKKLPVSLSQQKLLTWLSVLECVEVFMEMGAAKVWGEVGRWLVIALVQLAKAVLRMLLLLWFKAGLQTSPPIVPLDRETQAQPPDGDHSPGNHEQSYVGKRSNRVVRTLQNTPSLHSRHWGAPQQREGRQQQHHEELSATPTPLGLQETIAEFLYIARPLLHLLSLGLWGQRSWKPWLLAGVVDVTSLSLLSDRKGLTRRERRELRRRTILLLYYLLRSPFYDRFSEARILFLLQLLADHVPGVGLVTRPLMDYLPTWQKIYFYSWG
UniProt Q9Y4P1: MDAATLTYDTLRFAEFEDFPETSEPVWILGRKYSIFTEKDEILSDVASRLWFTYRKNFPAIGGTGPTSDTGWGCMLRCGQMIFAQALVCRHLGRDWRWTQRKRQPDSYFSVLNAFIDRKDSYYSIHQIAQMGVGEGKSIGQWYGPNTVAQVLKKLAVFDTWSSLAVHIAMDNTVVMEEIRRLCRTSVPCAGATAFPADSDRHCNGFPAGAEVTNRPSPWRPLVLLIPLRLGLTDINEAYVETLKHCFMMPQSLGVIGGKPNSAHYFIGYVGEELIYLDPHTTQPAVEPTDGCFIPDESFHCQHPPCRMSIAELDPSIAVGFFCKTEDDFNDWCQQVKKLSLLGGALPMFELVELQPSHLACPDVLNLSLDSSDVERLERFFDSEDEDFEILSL
UniProt Q9Y2F5: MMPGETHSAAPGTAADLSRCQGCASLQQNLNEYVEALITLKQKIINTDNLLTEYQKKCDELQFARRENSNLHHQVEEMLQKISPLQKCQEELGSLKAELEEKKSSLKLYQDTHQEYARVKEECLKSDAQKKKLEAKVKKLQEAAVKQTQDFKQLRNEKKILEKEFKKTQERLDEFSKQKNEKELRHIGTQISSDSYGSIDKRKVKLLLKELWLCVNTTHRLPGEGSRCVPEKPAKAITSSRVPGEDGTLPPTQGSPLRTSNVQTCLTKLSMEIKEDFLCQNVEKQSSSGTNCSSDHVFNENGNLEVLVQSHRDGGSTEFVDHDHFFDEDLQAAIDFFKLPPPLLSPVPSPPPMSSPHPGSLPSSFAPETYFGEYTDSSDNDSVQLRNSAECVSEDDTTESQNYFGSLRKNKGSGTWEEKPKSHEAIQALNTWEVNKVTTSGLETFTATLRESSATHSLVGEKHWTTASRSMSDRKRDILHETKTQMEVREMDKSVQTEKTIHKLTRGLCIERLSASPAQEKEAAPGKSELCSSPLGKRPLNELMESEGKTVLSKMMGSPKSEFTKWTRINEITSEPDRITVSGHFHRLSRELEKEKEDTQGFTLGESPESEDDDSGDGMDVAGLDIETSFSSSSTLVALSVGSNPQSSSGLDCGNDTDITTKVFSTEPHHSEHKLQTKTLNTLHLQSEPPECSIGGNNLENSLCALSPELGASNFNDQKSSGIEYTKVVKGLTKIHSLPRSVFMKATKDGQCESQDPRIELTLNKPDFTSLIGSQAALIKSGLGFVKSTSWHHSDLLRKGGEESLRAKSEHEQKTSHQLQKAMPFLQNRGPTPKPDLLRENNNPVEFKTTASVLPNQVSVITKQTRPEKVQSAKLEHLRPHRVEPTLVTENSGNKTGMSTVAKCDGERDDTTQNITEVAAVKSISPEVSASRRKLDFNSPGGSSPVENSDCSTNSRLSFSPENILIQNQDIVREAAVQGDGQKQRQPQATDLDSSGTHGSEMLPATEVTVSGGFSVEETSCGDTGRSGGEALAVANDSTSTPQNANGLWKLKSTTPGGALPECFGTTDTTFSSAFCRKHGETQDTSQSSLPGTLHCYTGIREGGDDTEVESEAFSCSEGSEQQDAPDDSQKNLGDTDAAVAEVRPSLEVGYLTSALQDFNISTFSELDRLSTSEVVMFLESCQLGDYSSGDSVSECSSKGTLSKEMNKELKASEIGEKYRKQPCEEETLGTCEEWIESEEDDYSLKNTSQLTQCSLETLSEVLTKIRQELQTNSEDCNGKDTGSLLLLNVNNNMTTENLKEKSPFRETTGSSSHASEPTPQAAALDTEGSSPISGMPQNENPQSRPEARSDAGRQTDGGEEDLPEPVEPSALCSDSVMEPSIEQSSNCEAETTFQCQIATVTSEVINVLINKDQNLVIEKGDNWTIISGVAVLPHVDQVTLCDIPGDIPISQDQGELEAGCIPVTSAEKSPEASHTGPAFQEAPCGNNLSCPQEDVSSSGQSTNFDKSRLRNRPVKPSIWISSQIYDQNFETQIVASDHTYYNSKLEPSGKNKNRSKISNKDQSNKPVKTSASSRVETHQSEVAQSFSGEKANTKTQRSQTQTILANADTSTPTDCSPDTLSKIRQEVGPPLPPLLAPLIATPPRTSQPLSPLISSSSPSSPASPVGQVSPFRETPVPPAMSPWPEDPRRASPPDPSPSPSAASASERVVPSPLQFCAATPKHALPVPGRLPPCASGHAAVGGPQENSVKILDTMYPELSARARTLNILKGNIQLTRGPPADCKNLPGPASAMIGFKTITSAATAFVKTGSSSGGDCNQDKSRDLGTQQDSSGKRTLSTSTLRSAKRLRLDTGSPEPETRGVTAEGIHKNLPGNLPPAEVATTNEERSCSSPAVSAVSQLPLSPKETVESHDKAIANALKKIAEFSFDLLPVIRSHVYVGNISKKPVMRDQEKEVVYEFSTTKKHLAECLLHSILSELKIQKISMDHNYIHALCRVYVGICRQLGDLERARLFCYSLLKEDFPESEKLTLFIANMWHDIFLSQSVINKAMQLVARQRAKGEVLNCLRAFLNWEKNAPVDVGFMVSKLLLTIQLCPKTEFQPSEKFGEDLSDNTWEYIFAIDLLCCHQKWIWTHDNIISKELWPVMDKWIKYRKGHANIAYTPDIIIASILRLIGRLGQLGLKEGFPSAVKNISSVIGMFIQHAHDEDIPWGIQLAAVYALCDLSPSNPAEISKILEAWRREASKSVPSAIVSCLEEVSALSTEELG

± gives the standard deviation of the averaged measurements. This is a selection; strong and weak results do not stand in their true shares. Small differences around the control level are noise.

Compound in the assay: Nc1ncnc2c1ncn2[C@@H]1O[C@H](COP(=O)(O)OP(=O)(O)OP(=O)(O)O)[C@@H](O)[C@H]1O [adenosine triphosphate]
Nature of the assay: NP40-soluble protein abundance relative to vehicle (solubility fold change) (ratio); higher = more soluble protein in presence of ATP. In outline:
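Data come from three independent experiments in which Dounce-homogenised Jurkat crude lysate was treated at eight concentrations from 0.1 to 10 mM. Treatment ran 10 min at room temperature and then 3 min at 37 °C, after which 0.8% NP40 and benzonase were added for 60 min at 4 °C before ultracentrifugation. The supernatant underwent TMT labelling and LC-MS/MS, and vsn-normalised intensities were expressed as fold change against the detergent-processed vehicle in each replicate.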

For PSAT1 (UniProt Q9Y617), the NP40-soluble protein abundance reads like this: (concentration: 0.1mM) 0.972 ± 0.033; (concentration: 0.5mM) 0.978 ± 0.012.

As to MRPS16 (UniProt Q9Y3D3), the NP40-soluble protein abundance (concentration: 0.1mM) amounted to 0.874 ± 0.084 and the NP40-soluble protein abundance (concentration: 0.5mM) stood at 0.905 ± 0.11.

Take CAB39 (UniProt Q9Y376): the NP40-soluble protein abundance by setting is: (concentration: 0.1mM) 0.964 ± 0.054; (concentration: 0.5mM) 0.976 ± 0.023.

Consider ATP11B (UniProt Q9Y2G3), for which the NP40-soluble protein abundance is 1.11 ± 0.089 (concentration: 0.1mM) and 1.06 ± 0.086 (concentration: 0.5mM).

With LEMD3 (UniProt Q9Y2U8), the NP40-soluble protein abundance (concentration: 0.1mM) was 1.05 ± 0.011 and the NP40-soluble protein abundance (concentration: 0.5mM) is 0.991 ± 0.012.

For ARFGEF1 (UniProt Q9Y6D6), the NP40-soluble protein abundance came out at 1.008 ± 0.004 (concentration: 0.1mM) and 1.03 ± 0.023 (concentration: 0.5mM).

Take SPIN1 (UniProt Q9Y657): the NP40-soluble protein abundance by setting is: (concentration: 0.1mM) 1.01 ± 0.019; (concentration: 0.5mM) 1.09 ± 0.051.

In the case of “X5CMH5 and related entries (UniProt Q03519)”, the NP40-soluble protein abundance runs as follows: (concentration: 0.1mM) 1.1 ± 0.076; (concentration: 0.5mM) 1.09 ± 0.034.

Turning to UniProt Q9Y2H1, the NP40-soluble protein abundance is, setting by setting: (concentration: 0.1mM) 1.06 ± 0.034; (concentration: 0.5mM) 1.12 ± 0.066.

As to CHCHD2 (UniProt Q9Y6H1), the NP40-soluble protein abundance runs as follows: (concentration: 0.1mM) 1.05 ± 0.17; (concentration: 0.5mM) 0.977 ± 0.12.

On to RCL1 (UniProt Q9Y2P8), for which the NP40-soluble protein abundance is, setting by setting: (concentration: 0.1mM) 1.01 ± 0.15; (concentration: 0.5mM) 1.06 ± 0.08.

For the target GOLT1B (UniProt Q9Y3E0), the NP40-soluble protein abundance (concentration: 0.1mM) came out at 1.08 ± 0.14 and the NP40-soluble protein abundance (concentration: 0.5mM) was found to be 1.01 ± 0.072.

For CLIC4 (UniProt Q9Y696), the NP40-soluble protein abundance reads like this: (concentration: 0.1mM) 1 ± 0.015; (concentration: 0.5mM) 1.02 ± 0.056.

MYH15 (UniProt Q9Y2K3): the NP40-soluble protein abundance is, setting by setting: (concentration: 0.1mM) 1 ± 0.065; (concentration: 0.5mM) 1.05 ± 0.012.

On to CCDC9 (UniProt Q9Y3X0), for which the NP40-soluble protein abundance is 1.04 ± 0.089 (concentration: 0.1mM) and 1.07 ± 0.086 (concentration: 0.5mM).

On to ARIH1 (UniProt Q9Y4X5), for which the NP40-soluble protein abundance (concentration: 0.1mM) came out at 1.06 ± 0.11 and the NP40-soluble protein abundance (concentration: 0.5mM) was found to be 1.02 ± 0.07.

Turning to DDX49 (UniProt Q9Y6V7), the NP40-soluble protein abundance is 0.967 ± 0.098 (concentration: 0.1mM) and 1.07 ± 0.17 (concentration: 0.5mM).

For the target RRP7A (UniProt Q9Y3A4), the NP40-soluble protein abundance by setting is: (concentration: 0.1mM) 0.917 ± 0.082; (concentration: 0.5mM) 0.948 ± 0.023.

Consider POLR3K (UniProt Q9Y2Y1), for which the NP40-soluble protein abundance is, setting by setting: (concentration: 0.1mM) 0.91 ± 0.18; (concentration: 0.5mM) 0.902 ± 0.2.

Take UniProt Q9Y450 and related entries: the NP40-soluble protein abundance (concentration: 0.1mM) was 1.02 ± 0.054 and the NP40-soluble protein abundance (concentration: 0.5mM) is 1.03 ± 0.053.

Turning to UTP11 (UniProt Q9Y3A2), the NP40-soluble protein abundance runs as follows: (concentration: 0.1mM) 0.928 ± 0.052; (concentration: 0.5mM) 0.972 ± 0.045.

UniProt Q9Y2C4 and related entries: the NP40-soluble protein abundance (concentration: 0.1mM) was found to be 1.05 ± 0.037 and the NP40-soluble protein abundance (concentration: 0.5mM) was found to be 1.06 ± 0.1.

For the target ASB1 (UniProt Q9Y576), the NP40-soluble protein abundance reads like this: (concentration: 0.1mM) 0.961 ± 0.051; (concentration: 0.5mM) 0.937 ± 0.11.

UniProt Q9Y3L5: the NP40-soluble protein abundance is 1.06 ± 0.091 (concentration: 0.1mM) and 1.11 ± 0.12 (concentration: 0.5mM).

Take UniProt Q9Y5B6 and related entries: the NP40-soluble protein abundance runs as follows: (concentration: 0.1mM) 0.929 ± 0.032; (concentration: 0.5mM) 1.03 ± 0.031.

As for KPTN (UniProt Q9Y664), the NP40-soluble protein abundance (concentration: 0.1mM) was found to be 1.01 ± 0.051 and the NP40-soluble protein abundance (concentration: 0.5mM) is 1.06 ± 0.12.

Turning to UniProt Q9Y2Q0 and related entries, the NP40-soluble protein abundance (concentration: 0.1mM) worked out at 1.01 ± 0.061 and the NP40-soluble protein abundance (concentration: 0.5mM) was found to be 1.02 ± 0.015.

For the target UniProt Q9Y5L4 and related entries, the NP40-soluble protein abundance reads like this: (concentration: 0.1mM) 0.908 ± 0.08; (concentration: 0.5mM) 0.885 ± 0.13.

For the target CNPY2 (UniProt Q9Y2B0), the NP40-soluble protein abundance by setting is: (concentration: 0.1mM) 0.946 ± 0.06; (concentration: 0.5mM) 0.913 ± 0.07.

With UniProt Q9Y6N5, the NP40-soluble protein abundance by setting is: (concentration: 0.1mM) 1.06 ± 0.069; (concentration: 0.5mM) 1.06 ± 0.06.

In the case of UniProt Q9Y2V7 and related entries, the NP40-soluble protein abundance is 1.01 ± 0.019 (concentration: 0.1mM) and 0.993 ± 0.016 (concentration: 0.5mM).

Regarding SNX5 (UniProt Q9Y5X3), the NP40-soluble protein abundance reads like this: (concentration: 0.1mM) 1.02 ± 0.038; (concentration: 0.5mM) 1.03 ± 0.039.

Consider UniProt Q9Y4E6 and related entries, for which the NP40-soluble protein abundance is, setting by setting: (concentration: 0.1mM) 1 ± 0.059; (concentration: 0.5mM) 1 ± 0.06.

Turning to UniProt Q9Y2X7 and related entries, the NP40-soluble protein abundance runs as follows: (concentration: 0.1mM) 1.01 ± 0.055; (concentration: 0.5mM) 1.01 ± 0.058.

Turning to UniProt Q9Y6M9 and related entries, the NP40-soluble protein abundance runs as follows: (concentration: 0.1mM) 0.929 ± 0.043; (concentration: 0.5mM) 0.893 ± 0.072.

In the case of INPP5F (UniProt Q9Y2H2), the NP40-soluble protein abundance was 1.11 ± 0.069 (concentration: 0.1mM) and 1.02 ± 0.045 (concentration: 0.5mM).

Regarding SNX8 (UniProt Q9Y5X2), the NP40-soluble protein abundance runs as follows: (concentration: 0.1mM) 0.997 ± 0.049; (concentration: 0.5mM) 0.984 ± 0.033.

RBM19 (UniProt Q9Y4C8): the NP40-soluble protein abundance amounted to 0.992 ± 0.043 (concentration: 0.1mM) and 0.9863 ± 0.0093 (concentration: 0.5mM).

Take UniProt Q9Y3Y2 and related entries: the NP40-soluble protein abundance reads like this: (concentration: 0.1mM) 0.962 ± 0.1; (concentration: 0.5mM) 0.98 ± 0.043.

Turning to UniProt Q9Y678, the NP40-soluble protein abundance worked out at 1.02 ± 0.062 (concentration: 0.1mM) and 1.03 ± 0.032 (concentration: 0.5mM).

Regarding PRKAB1 (UniProt Q9Y478), the NP40-soluble protein abundance (concentration: 0.1mM) worked out at 1.02 ± 0.034 and the NP40-soluble protein abundance (concentration: 0.5mM) turned out to be 0.972 ± 0.032.

As for SLC30A1 (UniProt Q9Y6M5), the NP40-soluble protein abundance by setting is: (concentration: 0.1mM) 0.942 ± 0.14; (concentration: 0.5mM) 0.997 ± 0.057.

ATP6V0A2 (UniProt Q9Y487): the NP40-soluble protein abundance worked out at 1.08 ± 0.056 (concentration: 0.1mM) and 1.02 ± 0.024 (concentration: 0.5mM).

Turning to UniProt Q9Y2X9 and related entries, the NP40-soluble protein abundance came out at 1 ± 0.12 (concentration: 0.1mM) and 0.978 ± 0.041 (concentration: 0.5mM).

On to ZNF330 (UniProt Q9Y3S2), for which the NP40-soluble protein abundance runs as follows: (concentration: 0.1mM) 1.04 ± 0.073; (concentration: 0.5mM) 1.03 ± 0.037.

For the target UniProt Q9Y333, the NP40-soluble protein abundance by setting is: (concentration: 0.1mM) 0.923 ± 0.014; (concentration: 0.5mM) 0.954 ± 0.088.

On to HEBP2 (UniProt Q9Y5Z4), for which the NP40-soluble protein abundance is, setting by setting: (concentration: 0.1mM) 1 ± 0.046; (concentration: 0.5mM) 1 ± 0.046.

In the case of MRPS18B (UniProt Q9Y676), the NP40-soluble protein abundance (concentration: 0.1mM) is 0.885 ± 0.17 and the NP40-soluble protein abundance (concentration: 0.5mM) came to 0.923 ± 0.18.

As for UniProt Q9Y5Y5 and related entries, the NP40-soluble protein abundance by setting is: (concentration: 0.1mM) 1 ± 0.09; (concentration: 0.5mM) 0.835 ± 0.064.

Turning to UniProt Q9Y3D5 and related entries, the NP40-soluble protein abundance is 0.832 ± 0.11 (concentration: 0.1mM) and 0.857 ± 0.12 (concentration: 0.5mM).

For the target UniProt Q9Y2H6 and related entries, the NP40-soluble protein abundance reads like this: (concentration: 0.1mM) 1.04 ± 0.075; (concentration: 0.5mM) 1.05 ± 0.062.

On to UniProt Q9Y3U8, for which the NP40-soluble protein abundance runs as follows: (concentration: 0.1mM) 0.984 ± 0.11; (concentration: 0.5mM) 0.953 ± 0.067.

In the case of UniProt Q9Y4P1 and related entries, the NP40-soluble protein abundance is, setting by setting: (concentration: 0.1mM) 1.04 ± 0.14; (concentration: 0.5mM) 1.03 ± 0.058.

Take UniProt Q9Y6X9 and related entries: the NP40-soluble protein abundance (concentration: 0.1mM) is 0.993 ± 0.039 and the NP40-soluble protein abundance (concentration: 0.5mM) was 1.055 ± 0.008.

ICE1 (UniProt Q9Y2F5): the NP40-soluble protein abundance reads like this: (concentration: 0.1mM) 1 ± 0.17; (concentration: 0.5mM) 1.22 ± 0.29.

On to SUPT16H (UniProt Q9Y5B9), for which the NP40-soluble protein abundance amounted to 1 ± 0.029 (concentration: 0.1mM) and 1.05 ± 0.02 (concentration: 0.5mM).

For the target TMED7 (UniProt Q9Y3B3), the NP40-soluble protein abundance (concentration: 0.1mM) was found to be 1.03 ± 0.11 and the NP40-soluble protein abundance (concentration: 0.5mM) came out at 0.97 ± 0.019.

In the case of AP4B1 (UniProt Q9Y6B7), the NP40-soluble protein abundance is 1.06 ± 0.086 (concentration: 0.1mM) and 1.03 ± 0.03 (concentration: 0.5mM).

In the case of UniProt Q9Y4G8 and related entries, the NP40-soluble protein abundance amounted to 1.03 ± 0.049 (concentration: 0.1mM) and 1.03 ± 0.082 (concentration: 0.5mM).

With SAMM50 (UniProt Q9Y512), the NP40-soluble protein abundance came out at 1.04 ± 0.078 (concentration: 0.1mM) and 1 ± 0.013 (concentration: 0.5mM).
